## Primary screen of a compound library

By UniProt entry, the sequences of proteins in these tests, tags left out.
UniProt E9BF75, entry or part of it: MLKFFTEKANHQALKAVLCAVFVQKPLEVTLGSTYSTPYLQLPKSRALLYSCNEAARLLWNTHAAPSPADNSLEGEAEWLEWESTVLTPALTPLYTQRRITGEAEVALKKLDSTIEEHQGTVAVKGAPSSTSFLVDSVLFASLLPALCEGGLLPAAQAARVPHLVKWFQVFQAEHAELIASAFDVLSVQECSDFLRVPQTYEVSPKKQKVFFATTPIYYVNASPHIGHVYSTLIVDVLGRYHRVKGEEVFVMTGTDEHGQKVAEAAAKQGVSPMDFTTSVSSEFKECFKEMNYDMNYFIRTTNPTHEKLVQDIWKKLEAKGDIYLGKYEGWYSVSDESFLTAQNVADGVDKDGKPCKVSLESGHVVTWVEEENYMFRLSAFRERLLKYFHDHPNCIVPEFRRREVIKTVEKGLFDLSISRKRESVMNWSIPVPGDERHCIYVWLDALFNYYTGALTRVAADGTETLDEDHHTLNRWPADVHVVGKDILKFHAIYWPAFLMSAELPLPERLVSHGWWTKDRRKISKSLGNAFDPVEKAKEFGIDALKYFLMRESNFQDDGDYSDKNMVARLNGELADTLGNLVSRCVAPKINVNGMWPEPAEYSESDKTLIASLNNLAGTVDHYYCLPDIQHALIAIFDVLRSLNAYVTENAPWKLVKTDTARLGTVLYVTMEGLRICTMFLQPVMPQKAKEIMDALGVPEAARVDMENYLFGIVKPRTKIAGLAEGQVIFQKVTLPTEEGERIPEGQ

Data taken from ChEMBL document CHEMBL3988442, “University of Dundee, Small-Polar-MMV Screening Library” (2021).

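Methionyl-tRNA synthetase (putative), Leishmania donovani (UniProt E9BF75). Primary screen of methionyl-tRNA synthetase; the read-out is not stated. The test concentration is not given. Values are per cent inhibition. Of about 68,000 compounds tested this way, about 24 (0.035%) reached 50% or more in at least one test.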

Results are percentages, as filed. The record does not define 0% and 100%; most values in the screen are far below 50% and negative numbers occur (in some assays of this library far below -100). The compounds are a random part of those screened. Two or more numbers in one place are separate tests of the same structure; such repeats can differ widely.

For Cc1cc(NC(=O)C(C)Cn2cncn2)no1 (stereo not given) the result was 14.37% and 12.3%.
For Cc1ccsc1C(O)CNC(=O)Cc1ccc(S(=O)(=O)C(C)C)cc1 (stereo not given) the result was 16.21%.
For CN(Cc1ccccc1)CC1(O)CCCN(Cc2ccc(F)cc2)C1=O (stereo not given) the result was 12.75%.
For CCCn1nc(-c2nc(Cc3ccc(OC)cc3)no2)ccc1=O the result was 20.95%.
For Cn1cc(C(=O)Nc2ccnc(Oc3ccccc3)c2)ccc1=O the result was 3.008%.
For c1cc2nccc(CC3CCCN(Cc4ncc[nH]4)CC3)c2cn1 (stereo not given) the result was 20.21%.
For O=S(=O)(N1CCCC1)N(Cc1ccccc1)CC1CCCO1 (stereo not given) the result was 13.44%.
For CCCc1nnc(N2CCC(N3CCCCCC3)CC2)o1 the result was 16.03%.
For CN(C)C(=O)CNS(=O)(=O)c1cc(Br)ccc1F the result was 6.41%.
For CC(=O)NCC(=O)N1Cc2cnc(CC(C)C)nc2C1 the result was 15.08%.
For O=C(Cc1c[nH]c2ncccc12)NCC(O)c1ccccc1F (stereo not given) the result was 6.842%.
For CCCC(NC(=O)c1cc(C)c(F)cc1F)c1nnn[nH]1 (stereo not given) the result was 10.08%.
For COc1ccc(-n2cc(CNC(=O)c3cscn3)nn2)cc1 the result was 13.48%.
For Cc1nc(N(C)C)ncc1C(=O)N[C@H]1Cc2ccccc2[C@@H]1N the result was 19.24%.
For CC(C)CNC(=O)[C@H]1C[C@@H]2CN(Cc3cccnc3)C[C@H]1O2 the result was 10.87%.
For Cc1ccc(CN2CCC(O)(Cn3ccc4ncccc43)CC2)o1 the result was 19.79%.
For c1cc(CN2C[C@@H]3OCCN(CC4CC4)[C@@H]3C2)n[nH]1 the result was 7.038%.
For Cn1cnnc1CC1CCN(Cc2c(Cl)cncc2Cl)CC1 the result was 9.278%.
For CS(=O)(=O)N1CCCN(CCCSCc2ccccc2)CC1 the result was 7.397%.
For COc1ncc(C2(O)CCN(Cc3cccs3)CC2)c(OC)n1 the result was 18.53%.
For Cc1cccc(NC2CCc3c2[nH]c(=O)n(C2CCCCC2)c3=O)c1C (stereo not given) the result was 7.576%.
For O=C(Cn1nc(-c2ccc(F)cc2)oc1=O)NCC1CCCO1 (stereo not given) the result was 6.211%.
For O=C(NC1CCC1)[C@H]1C[C@@H]2CN(CC3CC3)C[C@H]1O2 the result was 11.48%.
For CCN(CCC(=O)OC)C(=O)c1cc(F)cc2[nH]cnc12 the result was -2.484%.
For Cc1cnn(CCNCC(O)c2ccc(S(C)(=O)=O)cc2)c1 (stereo not given) the result was 9.561%.
For O=C(NCCCN1CCCCCC1=O)c1n[nH]c(=O)c2ccccc12 the result was 19.88%.
For CCOc1nn(CC)cc1-c1nnc(SCc2cccnc2)n1C the result was 15.59%.
For Brc1cc(CNCc2nnc3n2CCC3)cs1 the result was 20.21%.
For COc1ccccc1NC(=O)CCNC(=O)c1ccoc1 the result was 5.367%.
For CC(=O)N1CCN(C(=O)c2ccc(Sc3ccccn3)cc2)CC1 the result was 17.16%.
For CC/C=C(/C)C(=O)NS(=O)(=O)c1ccc(C#N)cc1C(F)(F)F the result was 8.732%.
For c1cc(CN2CCC3(CCOCC3COCC3CC3)CC2)co1 (stereo not given) the result was 11.11%.
For Cc1occc1C(=O)N1C[C@@H](C(=O)NCc2ccco2)C[C@H]2OCC[C@H]21 the result was 6.849%.
For CNS(=O)(=O)c1ccc(CNC(=O)N(CC(C)C)C(C)C)cc1 the result was 19.76%.
For Cn1cc(NC(=O)c2ccccn2)cc(Br)c1=O the result was 8.462%.
For N#Cc1ccc(N2CCCN(CCCn3cncn3)CC2)cc1 the result was 10.43%.
For Cn1cc(CN2C[C@@H](NC(=O)c3cscn3)[C@H]3OCCC[C@H]32)cn1 the result was 13.33%.
For COCCNC(=O)c1ccc(C)c(-n2cccc2)c1 the result was 8.451%.
For COCC(=O)N1CCN(c2ccc(C(=O)OC)cc2)CC1C (stereo not given) the result was 10.2%.
For COc1ccc(OC)c(C(=O)N(C)Cc2ncc(C)c(OC)c2C)c1 the result was 9.278%.
For CCn1ncnc1CN(C/C=C/c1ccccc1)CCOC the result was 11.08%.
For c1ccc(Cc2nc(CN3CCCC3Cn3cncn3)cs2)cc1 (stereo not given) the result was 26.2%.
For CN1CCN(Cc2cccc(NCc3cc[nH]n3)c2)CC1 the result was 9.669%.
For COCC[C@]1(O)CCN(C(=O)C2CCN(C3CCCC3)CC2)C[C@H]1C the result was 15.46%.
For C=C(C)CN1CCC(NC(=O)NCCc2cccc(C(N)=O)c2)CC1 the result was 8.152%.
For CNC(=O)c1ccccc1-c1ccc(S(C)(=O)=O)cc1 the result was 15.28%.
For O=C(Cc1csc(Cc2ccccn2)n1)NCCCN1CCCC1=O the result was -0.5988%.
For CN(C)c1ncccc1NC(=O)COC1CCCC1 the result was 9.756%.
For CCCc1cc(CNC(=O)Cc2cc(C)no2)on1 the result was 15.28%.
For Nc1nc(CC(=O)N2CCCC(CCc3cccc(F)c3)C2)cc(=O)[nH]1 (stereo not given) the result was 11.92%.
For Cc1[nH]ccc1C(=O)NCC1CC(=O)N(CCc2ccccc2)C1 (stereo not given) the result was 6.593%.
For Cc1cc(CN2CCC3(CC2)C(=O)NCCN3CC2CC2)oc1C the result was 5.333%.
For CCOCCNC(=O)c1cccnc1Sc1cc(OC)ccc1OC the result was 0.8333%.
For Cn1cc(Br)c(=O)c(NS(=O)(=O)c2ccccc2F)c1 the result was 5.076%.
For CCOc1cc(=O)n2c(c1C(=O)OCc1ccc(OC)cc1)CCCC2 the result was 9.686%.
For CCSc1cc(C(=O)NC2CCN(C(=O)c3ccccc3)CC2)ccn1 the result was 16.38%.
For CC(Cn1ccnc1)NC(=O)NCc1ccc2c(c1)OCCO2 (stereo not given) the result was 18.07%.

Some entries from above, unchanged:

compound,inhibition
Brc1cc(CNCc2nnc3n2CCC3)cs1,20.21%
CN1CCN(Cc2cccc(NCc3cc[nH]n3)c2)CC1,9.669%
c1cc(CN2C[C@@H]3OCCN(CC4CC4)[C@@H]3C2)n[nH]1,7.038%
CN(C)c1ncccc1NC(=O)COC1CCCC1,9.756%
c1cc(CN2CCC3(CCOCC3COCC3CC3)CC2)co1 (stereo not given),11.11%
O=C(Cn1nc(-c2ccc(F)cc2)oc1=O)NCC1CCCO1 (stereo not given),6.211%
CNS(=O)(=O)c1ccc(CNC(=O)N(CC(C)C)C(C)C)cc1,19.76%